For this data set, the system named is globules rouges.

For `C=CCN1CC[C@]23c4c5ccc(OS(=O)(=O)O)c4O[C@H]2C(=O)CC[C@@]3(OS(=O)(=O)O)[C@H]1C5` [naloxone-3,14-disulfate], the “Rdt Encap (rendement d'encapsulation)” value worked out at 71%, the “Rdt Glob (rendement globulaire)” value was determined as 89%, the “Rdt Hb (rendement en hémoglobine)” value is 82% and the “Rdt Hte (rendement en hématocrite)” value was 83%.
On the same counts, the results for `C=CCN1CC[C@]23c4c5ccc(OP(=O)(O)OC)c4O[C@H]2C(=O)CC[C@@]3(O)[C@H]1C5` [naloxone-3-phosphate(OMe)] are 60%, 86%, 84% and 73%.
Take `C=CCN1CC[C@]23c4c5ccc(OP(=O)(O)O)c4O[C@H]2C(=O)CC[C@@]3(O)[C@H]1C5` [naloxone-3-phosphate]: the “Rdt Encap (rendement d'encapsulation)” value is 56%, the “Rdt Glob (rendement globulaire)” value is recorded as 75%, the “Rdt Hb (rendement en hémoglobine)” value stood at 86% and the “Rdt Hte (rendement en hématocrite)” value is listed as 83%.
In the case of `C=CCN1CC[C@]23c4c5ccc(OP(=O)(O)OP(=O)(O)OP(=O)(O)O)c4O[C@H]2C(=O)CC[C@@]3(O)[C@H]1C5` [naloxone-3-triphopshate], the “Rdt Encap (rendement d'encapsulation)” value stood at 37%, the “Rdt Glob (rendement globulaire)” value was 84%, the “Rdt Hb (rendement en hémoglobine)” value is 76% and the “Rdt Hte (rendement en hématocrite)” value is on record as 79%.
`O=C1CC[C@@]2(OS(=O)(=O)O)[C@H]3Cc4ccc(OS(=O)(=O)O)c5c4[C@@]2(CCN3CC2CC2)[C@H]1O5` [naltrexone-3,14-disulfate]: the “Rdt Encap (rendement d'encapsulation)” value is 51%, the “Rdt Glob (rendement globulaire)” value came to 88%, the “Rdt Hb (rendement en hémoglobine)” value was 71% and the “Rdt Hte (rendement en hématocrite)” value came to 74%.
The like results for `COP(=O)(O)Oc1ccc2c3c1O[C@H]1C(=O)CC[C@@]4(O)[C@@H](C2)N(CC2CC2)CC[C@]314` [naltrexone-3-phosphate(OMe)] were, in that order, 62%, 86%, 81% and 71%.
The like results for `O=C1CC[C@@]2(O)[C@H]3Cc4ccc(OP(=O)(O)O)c5c4[C@@]2(CCN3CC2CC2)[C@H]1O5` [naltrexone-3-phosphate] were, in that order, 72%, 88%, 71% and 75%.
`O=C1CC[C@@]2(O)[C@H]3Cc4ccc(OP(=O)(O)OP(=O)(O)OP(=O)(O)O)c5c4[C@@]2(CCN3CC2CC2)[C@H]1O5` [naltrexone-3-triphosphate]: the “Rdt Encap (rendement d'encapsulation)” value worked out at 34%, the “Rdt Glob (rendement globulaire)” value came out at 93%, the “Rdt Hb (rendement en hémoglobine)” value is listed as 86% and the “Rdt Hte (rendement en hématocrite)” value worked out at 90%.
